These results are taken from article PMC12061849.

Amino acid sequences for entries named in this document (tags omitted).
UniProt Q09472: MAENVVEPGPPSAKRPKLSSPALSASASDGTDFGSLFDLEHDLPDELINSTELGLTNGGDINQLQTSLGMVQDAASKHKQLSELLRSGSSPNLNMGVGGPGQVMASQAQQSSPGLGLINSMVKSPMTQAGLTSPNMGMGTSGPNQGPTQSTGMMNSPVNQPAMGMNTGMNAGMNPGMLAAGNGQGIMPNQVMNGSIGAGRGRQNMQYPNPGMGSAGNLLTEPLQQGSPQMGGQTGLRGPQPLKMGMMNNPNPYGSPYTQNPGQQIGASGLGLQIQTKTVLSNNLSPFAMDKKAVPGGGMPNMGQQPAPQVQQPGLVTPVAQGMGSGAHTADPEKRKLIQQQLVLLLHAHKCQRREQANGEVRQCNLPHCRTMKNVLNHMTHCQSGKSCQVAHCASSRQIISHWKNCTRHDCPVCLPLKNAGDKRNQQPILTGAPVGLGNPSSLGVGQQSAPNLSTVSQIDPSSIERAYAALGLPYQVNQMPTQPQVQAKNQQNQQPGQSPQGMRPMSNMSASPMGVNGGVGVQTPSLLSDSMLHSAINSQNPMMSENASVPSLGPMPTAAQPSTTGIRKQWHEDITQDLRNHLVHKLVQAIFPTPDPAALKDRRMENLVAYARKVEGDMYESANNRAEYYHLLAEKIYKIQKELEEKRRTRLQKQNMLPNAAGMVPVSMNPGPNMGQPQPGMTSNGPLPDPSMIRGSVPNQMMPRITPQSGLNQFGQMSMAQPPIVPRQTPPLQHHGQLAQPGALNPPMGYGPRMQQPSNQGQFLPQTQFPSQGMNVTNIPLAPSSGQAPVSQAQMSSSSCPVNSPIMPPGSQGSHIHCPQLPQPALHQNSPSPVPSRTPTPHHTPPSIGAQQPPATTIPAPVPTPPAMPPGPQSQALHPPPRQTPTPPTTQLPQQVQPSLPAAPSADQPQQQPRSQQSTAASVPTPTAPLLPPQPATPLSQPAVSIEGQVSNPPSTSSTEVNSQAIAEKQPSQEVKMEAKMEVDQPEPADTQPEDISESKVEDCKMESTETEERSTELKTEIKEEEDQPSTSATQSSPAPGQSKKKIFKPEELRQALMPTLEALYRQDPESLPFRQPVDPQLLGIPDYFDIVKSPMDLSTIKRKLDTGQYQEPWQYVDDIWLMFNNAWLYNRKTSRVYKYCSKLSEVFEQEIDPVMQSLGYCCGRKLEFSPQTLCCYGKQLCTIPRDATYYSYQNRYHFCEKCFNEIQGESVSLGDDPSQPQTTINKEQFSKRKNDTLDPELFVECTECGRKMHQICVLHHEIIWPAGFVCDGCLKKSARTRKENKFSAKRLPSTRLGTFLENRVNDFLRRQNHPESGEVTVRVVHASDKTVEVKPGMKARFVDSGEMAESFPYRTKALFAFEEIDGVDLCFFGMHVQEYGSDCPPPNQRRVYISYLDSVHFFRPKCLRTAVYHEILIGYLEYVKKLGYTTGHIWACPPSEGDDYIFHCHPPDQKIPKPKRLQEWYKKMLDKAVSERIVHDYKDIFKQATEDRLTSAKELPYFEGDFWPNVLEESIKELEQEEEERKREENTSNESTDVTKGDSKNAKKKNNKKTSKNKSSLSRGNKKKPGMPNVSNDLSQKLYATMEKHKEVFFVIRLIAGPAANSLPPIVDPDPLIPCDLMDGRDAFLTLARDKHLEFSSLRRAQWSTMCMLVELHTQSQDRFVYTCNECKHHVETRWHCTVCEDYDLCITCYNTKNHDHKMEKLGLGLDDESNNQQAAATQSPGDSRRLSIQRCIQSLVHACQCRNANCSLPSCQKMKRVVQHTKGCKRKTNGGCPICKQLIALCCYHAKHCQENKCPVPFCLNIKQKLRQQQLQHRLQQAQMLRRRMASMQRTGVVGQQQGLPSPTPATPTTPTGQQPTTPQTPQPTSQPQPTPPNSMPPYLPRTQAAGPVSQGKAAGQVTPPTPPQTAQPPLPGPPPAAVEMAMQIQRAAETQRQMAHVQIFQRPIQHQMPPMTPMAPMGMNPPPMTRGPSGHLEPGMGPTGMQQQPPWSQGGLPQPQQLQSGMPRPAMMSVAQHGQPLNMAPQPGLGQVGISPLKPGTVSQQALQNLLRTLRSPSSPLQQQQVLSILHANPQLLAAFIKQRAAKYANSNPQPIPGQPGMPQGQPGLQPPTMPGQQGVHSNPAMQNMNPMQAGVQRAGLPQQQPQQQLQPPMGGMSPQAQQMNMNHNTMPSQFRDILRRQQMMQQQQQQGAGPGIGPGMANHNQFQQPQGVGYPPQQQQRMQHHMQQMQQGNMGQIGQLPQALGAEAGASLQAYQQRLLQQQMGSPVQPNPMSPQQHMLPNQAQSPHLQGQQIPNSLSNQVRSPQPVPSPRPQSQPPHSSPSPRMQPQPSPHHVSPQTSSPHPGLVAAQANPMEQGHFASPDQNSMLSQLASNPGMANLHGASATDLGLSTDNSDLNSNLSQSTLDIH
UniProt Q92769: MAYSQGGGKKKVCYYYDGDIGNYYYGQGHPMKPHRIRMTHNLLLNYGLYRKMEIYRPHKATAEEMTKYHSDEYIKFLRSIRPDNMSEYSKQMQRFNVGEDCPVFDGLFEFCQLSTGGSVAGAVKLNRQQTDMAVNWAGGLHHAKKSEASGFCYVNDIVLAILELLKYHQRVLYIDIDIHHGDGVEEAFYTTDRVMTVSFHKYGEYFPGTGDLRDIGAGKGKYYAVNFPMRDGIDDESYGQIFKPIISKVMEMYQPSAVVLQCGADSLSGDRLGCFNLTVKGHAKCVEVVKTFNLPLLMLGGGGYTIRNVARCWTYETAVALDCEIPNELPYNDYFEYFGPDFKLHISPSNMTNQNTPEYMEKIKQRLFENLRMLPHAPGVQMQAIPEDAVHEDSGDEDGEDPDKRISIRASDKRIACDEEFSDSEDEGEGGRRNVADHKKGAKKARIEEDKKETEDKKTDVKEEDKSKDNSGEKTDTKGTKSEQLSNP
UniProt P35222: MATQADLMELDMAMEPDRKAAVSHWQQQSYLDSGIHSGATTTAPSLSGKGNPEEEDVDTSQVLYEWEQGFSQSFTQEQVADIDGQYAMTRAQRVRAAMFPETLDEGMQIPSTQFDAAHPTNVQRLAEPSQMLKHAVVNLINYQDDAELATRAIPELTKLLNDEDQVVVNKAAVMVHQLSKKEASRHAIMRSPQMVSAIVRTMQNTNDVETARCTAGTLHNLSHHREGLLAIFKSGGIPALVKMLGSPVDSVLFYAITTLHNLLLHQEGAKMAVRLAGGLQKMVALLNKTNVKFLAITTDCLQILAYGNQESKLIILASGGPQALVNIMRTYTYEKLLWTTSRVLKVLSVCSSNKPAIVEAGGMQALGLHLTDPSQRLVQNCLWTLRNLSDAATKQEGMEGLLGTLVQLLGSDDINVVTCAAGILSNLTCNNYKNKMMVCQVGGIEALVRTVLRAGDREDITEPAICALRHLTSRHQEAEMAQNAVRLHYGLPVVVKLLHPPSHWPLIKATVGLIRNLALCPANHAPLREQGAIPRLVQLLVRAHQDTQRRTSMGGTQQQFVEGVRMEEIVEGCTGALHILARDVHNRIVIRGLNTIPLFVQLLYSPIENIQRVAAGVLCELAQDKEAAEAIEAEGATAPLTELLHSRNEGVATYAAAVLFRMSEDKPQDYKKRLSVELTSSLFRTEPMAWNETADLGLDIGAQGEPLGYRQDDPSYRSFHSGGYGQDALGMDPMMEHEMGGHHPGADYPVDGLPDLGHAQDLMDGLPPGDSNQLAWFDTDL
UniProt P25490: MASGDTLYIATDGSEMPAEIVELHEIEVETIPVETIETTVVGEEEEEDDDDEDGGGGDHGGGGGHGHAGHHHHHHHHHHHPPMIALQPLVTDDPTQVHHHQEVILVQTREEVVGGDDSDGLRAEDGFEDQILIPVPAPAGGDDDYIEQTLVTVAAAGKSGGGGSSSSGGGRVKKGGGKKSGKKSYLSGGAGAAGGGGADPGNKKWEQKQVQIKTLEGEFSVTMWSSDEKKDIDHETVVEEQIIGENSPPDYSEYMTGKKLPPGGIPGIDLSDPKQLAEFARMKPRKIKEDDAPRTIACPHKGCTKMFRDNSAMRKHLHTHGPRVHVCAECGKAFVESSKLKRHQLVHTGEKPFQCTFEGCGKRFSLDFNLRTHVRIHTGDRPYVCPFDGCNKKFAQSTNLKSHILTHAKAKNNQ

No constants are given. Whether binding was seen depends on the method and setting. In cells and extracts the contact can be indirect. Some binding calls cover weakened binding; strength is not graded here.

Holding throughout (assay): co-IP; lysates of LNCAP and PC3 cells; immunoprecipitation with anti-p300, anti-HDAC2, anti-β-catenin, anti-FBXW2 or anti-IgG for 1 h, protein A/G agarose beads, Western blot
Assay [1] has as its target p300 (human (endogenous in LNCAP and PC3)) (UniProt Q09472).
The target in assay [2] is histone deacetylase 2 (human (endogenous in LNCAP and PC3)) (UniProt Q92769).
For assay [3], the target named is β‐catenin (human (endogenous in LNCAP and PC3)) (UniProt P35222).

In the case of YY1 (from UniProt P25490 1-414), the binding entry in assay [1] and in assay [2] was “binds” throughout.

B1: F‐box and WD repeat domain containing 2 (protein, UniProt Q9UKT8 1-454)
chain: MERKDFETWLDNISVTFLSLTDLQKNETLDHLISLSGAVQLRHLSNNLETLLKRDFLKLLPLELSFYLLKWLDPQTLLTCCLVSKQWNKVISACTEVWQTACKNLGWQIDDSVQDALHWKKVYLKAILRMKQLEDHEAFETSSLIGHSARVYALYYKDGLLCTGSDDLSAKLWDVSTGQCVYGIQTHTCAAVKFDEQKLVTGSFDNTVACWEWSSGARTQHFRGHTGAVFSVDYNDELDILVSGSADFTVKVWALSAGTCLNTLTGHTEWVTKVVLQKCKVKSLLHSPGDYILLSADKYEIKIWPIGREINCKCLKTLSVSEDRSICLQPRLHFDGKYIVCSSALGLYQWDFASYDILRVIKTPEIANLALLGFGDIFALLFDNRYLYIMDLRTESLISRWPLPEYRKSKRGSSFLAGEASWLNGLDGHNDTGLVFATSMPDHSIHLVLWKEHG
With B1, the binding entry in assay [3] is given as “binds”.
